Experiment [1] has as its target HPVE6 (false bait) (HPV, type not stated). The experiment in a line: yeast two-hybrid.
Experiment [2] addresses HPVE7 (false bait) (HPV, type not stated). The experiment in a line: yeast two-hybrid.

No constants are given. Whether binding was seen depends on the method and setting. Where a sequence is shown, tags or fusion partners need not be part of it.

LYETILILLFLDVDTG: the binding entry in experiment [1] and in experiment [2] was “no binding” in each case.

The values above are taken from US20120094896A1.
